The list does not hold the whole screen: it gathers tests that were run many times, whatever their T/C, doses with no T/C, and many T/C values between a quarter and a half above the control. Further doses and runs are listed elsewhere. T/C is the treated group as % of the vehicle group. Some entries give survivors of the animals treated and no T/C: the source files T/C as zero there, which appears to mark a toxic dose or a test without result, not a measured value. Some doses without a T/C left all or most animals alive at the check, yet need not have been tolerated: survival well below the control is almost never listed, so the zero probably covers shortened survival too. Counts of survivors are from the toxicity check (mostly the fifth day) where no day follows; animals may have died later. Schedule codes are those of the source, read here as Q, the interval in days (D) or hours (H), X, the number of doses. Some entries hold several experiments; the values are given in rising order. For survival time, this PubChem deposit counts one and a half times the control or more as active, and values a quarter to a half above the control carry no call in these data; other NCI protocols may use other cut-offs. Some T/C values are followed by the survivors on the day toxicity was checked, most often the fifth; where none is given, no animal had died by that day. Counts like (3×) count equal records among those shown.
Tested on: BDF1 mice, P388 leukemia ip, median survival T/C
Experiment: NCI In Vivo Anticancer Drug Screen. Data for tumor model P388 Leukemia (intraperitoneal) in B6D2F1 (BDF1) mice
Settings: T/C endpoint: median survival time, higher T/C = longer survival
How it was run: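 Mice carrying the transplantable tumour receive compound or vehicle. Survival is followed in each arm, and the treated measure is divided by the vehicle measure.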

[1] = dose: 250.0 mg/kg/injection, schedule: Q01DX001 (ip), vehicle: Klucel (hydroxypropylcellulose) (HPC)

CCCCCCCCCCCCCCCC(=O)OCC1OC(n2ccc(N)nc2=O)C(O)C1O (stereo not drawn)
survivor count (dose: 50.0 mg/kg/injection, schedule: Q01DX005 (ip), vehicle: Klucel (hydroxypropylcellulose) (HPC)): 5 of 6 and 6 of 6 | T/C (dose: 50.0 mg/kg/injection, schedule: Q01DX009 (ip), vehicle: Klucel (hydroxypropylcellulose) (HPC), evaluated on day 30): 86, 90, 91, 93, 94, 98, 100, 103, 105, 106 (2×), 110, 111, 119 (3×), 121, 122, 125 (2×), 127 [2 of 3 alive], 133, 139, 242, 262 [5 of 6 alive], 263, 273, 274, 275 % of control | T/C (dose: 50.0 mg/kg/injection, schedule: Q01DX009 (ip), vehicle: Klucel (hydroxypropylcellulose) (HPC), evaluated on day 35): 321 % of control | survivor count (dose: 50.0 mg/kg/injection, schedule: Q01DX009 (ip), vehicle: Klucel (hydroxypropylcellulose) (HPC)): 3 of 3 and 6 of 6 | survivor count (dose: 60.0 mg/kg/injection, schedule: Q01DX009 (ip), vehicle: saline with Tween-80): 6 of 6 | T/C (dose: 60.0 mg/kg/injection, schedule: Q04DX003 (ip), vehicle: saline with Tween-80, evaluated on day 5): 207, 225, 369 % of control | T/C (dose: 60.0 mg/kg/injection, schedule: Q04DX003 (ip), vehicle: saline with Tween-80, evaluated on day 60): 225 and 369 % of control | T/C (dose: 62.5 mg/kg/injection, schedule: Q01DX001 (ip), vehicle: Klucel (hydroxypropylcellulose) (HPC)): 100, 105, 138, 139, 179 [2 of 3 alive], 184, 185, 189, 192, 196, 214, 216, 225, 227, 232, 237 (2×), 241, 245 (2×), 247, 250, 254, 264, 266, 267, 272, 277, 283, 287 % of control | survivor count (dose: 75.0 mg/kg/injection, schedule: Q01DX009 (ip), vehicle: saline with Tween-80): 6 of 6 | T/C (dose: 75.0 mg/kg/injection, schedule: Q04DX002 (ip), vehicle: Klucel (hydroxypropylcellulose) (HPC), evaluated on day 30): 126, 196, 205, 206, 217, 236, 237, 241, 245, 245 [2 of 3 alive], 247, 250 (2×), 255, 258 (2×), 260 (2×), 262, 265 (2×), 270 (3×), 272, 276, 280, 288 % of control | T/C (dose: 75.0 mg/kg/injection, schedule: Q04DX002 (ip), vehicle: Klucel (hydroxypropylcellulose) (HPC), evaluated on day 35): 264 % of control | survivor count (dose: 75.0 mg/kg/injection, schedule: Q04DX002 (ip), vehicle: Klucel (hydroxypropylcellulose) (HPC)): 3 of 3 | T/C (dose: 75.0 mg/kg/injection, schedule: Q04DX003 (ip), vehicle: Klucel (hydroxypropylcellulose) (HPC), evaluated on day 30): 187, 195, 223, 225, 241, 245 (2×), 247, 250, 252, 254, 256 (2×), 260 (2×), 262, 265, 267 (2×), 270 (2×), 271, 272 (3×), 277 (2×), 283, 287, 291, 299 % of control | T/C (dose: 75.0 mg/kg/injection, schedule: Q04DX003 (ip), vehicle: Klucel (hydroxypropylcellulose) (HPC), evaluated on day 35): 353 % of control | T/C (dose: 100.0 mg/kg/injection, schedule: Q01DX001 (ip), vehicle: saline with Tween-80, evaluated on day 5): 198, 213, 322, 368 % of control | T/C (dose: 100.0 mg/kg/injection, schedule: Q01DX001 (ip), vehicle: saline with Tween-80, evaluated on day 60): 185, 192, 198, 206, 213, 289, 322, 368, 535 % of control | survivor count (dose: 120.0 mg/kg/injection, schedule: Q01DX009 (ip), vehicle: saline with Tween-80): 6 of 6 | T/C (dose: 125.0 mg/kg/injection, schedule: Q01DX001 (ip), vehicle: Klucel (hydroxypropylcellulose) (HPC)): 105, 111, 138, 157, 159, 163, 171, 234, 247 (2×), 250, 251, 256, 258, 265 (2×), 267 (3×), 272, 277, 280, 283, 284, 288 (2×), 291, 294, 297 % of control (2×) | T/C (dose: 125.0 mg/kg/injection, schedule: Q04DX002 (ip), vehicle: Klucel (hydroxypropylcellulose) (HPC)): 129 % of control | T/C (dose: 150.0 mg/kg/injection, schedule: Q01DX001 (ip), vehicle: saline with Tween-80, evaluated on day 5): 203, 207, 351, 578 % of control | T/C (dose: 150.0 mg/kg/injection, schedule: Q01DX001 (ip), vehicle: saline with Tween-80, evaluated on day 60): 187, 198, 203, 207, 242, 307, 351, 357, 578 % of control | T/C (dose: 150.0 mg/kg/injection, schedule: Q04DX002 (ip), vehicle: Klucel (hydroxypropylcellulose) (HPC), evaluated on day 30): 88, 90, 93, 94, 101, 112, 131, 138, 148, 162, 198, 228, 232, 238, 245, 247, 249, 250, 256, 258, 260, 277, 280 % of control | T/C (dose: 150.0 mg/kg/injection, schedule: Q04DX002 (ip), vehicle: Klucel (hydroxypropylcellulose) (HPC), evaluated on day 35): 196 % of control | survivor count (dose: 150.0 mg/kg/injection, schedule: Q04DX002 (ip), vehicle: Klucel (hydroxypropylcellulose) (HPC)): 2 of 3, 3 of 3, 6 of 6 | T/C (dose: 150.0 mg/kg/injection, schedule: Q04DX003 (ip), vehicle: Klucel (hydroxypropylcellulose) (HPC), evaluated on day 30): 86, 87, 90, 91, 92 (2×), 96, 97, 98, 99, 100, 101, 108 (2×), 110 (2×), 112, 117, 120, 130, 157, 163, 167, 188, 205, 250 (2×), 256, 297 % of control | T/C (dose: 150.0 mg/kg/injection, schedule: Q04DX003 (ip), vehicle: Klucel (hydroxypropylcellulose) (HPC), evaluated on day 35): 352 % of control | survivor count (dose: 150.0 mg/kg/injection, schedule: Q04DX003 (ip), vehicle: Klucel (hydroxypropylcellulose) (HPC)): 3 of 6 and 3 of 3 | T/C (dose: 225.0 mg/kg/injection, schedule: Q01DX001 (ip), vehicle: saline with Tween-80, evaluated on day 5): 205, 231, 581 % of control | T/C (dose: 225.0 mg/kg/injection, schedule: Q01DX001 (ip), vehicle: saline with Tween-80, evaluated on day 60): 205, 231, 581 % of control | T/C [1]: 86, 88, 98, 108, 111, 126, 165, 168, 181 (2×), 183, 194, 200 [5 of 6 alive], 206, 217, 237, 250, 261, 265, 266 (2×), 267 [2 of 3 alive], 272, 277, 279, 288 (2×), 294, 297 % of control | survivor count [1]: 3 of 3 | survivor count (dose: 250.0 mg/kg/injection, schedule: Q04DX002 (ip), vehicle: Klucel (hydroxypropylcellulose) (HPC)): 3 of 3 and 6 of 6 | survivor count (dose: 400.0 mg/kg/injection, schedule: Q04DX003 (ip), vehicle: saline with Tween-80): 6 of 6

From PubChem BioAssay AID328 (DTP/NCI, 2004)
